Experimental data as given in the supplement of paper PMC8728848.
This is one part of the list.

Tests used:
Experiment in all cases: glycan array binding signal (z-score within array); higher = stronger binding
Details in all cases: glycan notation: IUPAC condensed, linker removed
Fuc(a1-2)Gal = molecular target: Fuc(a1-2)Gal
Method in brief: (§1)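 Glycan array data were curated from 3228 arrays in the Consortium for Functional Glycomics database and kept only where the protein sequence was available. Glycan names were converted to IUPAC-condensed notation, and columns mapping to the same glycan were averaged. The binding signal is a within-array Z-score, averaged across arrays of the same protein sequence at different concentrations or buffers and across linkers. Negative Z-scores can be read as non-binding.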

Fuc(a1-2)Gal(b1-3)GalNAc = molecular target: Fuc(a1-2)Gal(b1-3)GalNAc
Method in brief: as §1

[1] = molecular target: Fuc(a1-2)Gal(b1-3)GalNAc(a1-3)[Fuc(a1-2)]Gal(b1-4)Glc
Method in brief: as §1

[2] = molecular target: Fuc(a1-2)Gal(b1-3)GalNAc(a1-3)[Fuc(a1-2)]Gal(b1-4)GlcNAc
Method in brief: as §1

[3] = molecular target: Fuc(a1-2)Gal(b1-3)GalNAc(b1-3)Gal
Method in brief: as §1

[4] = molecular target: Fuc(a1-2)Gal(b1-3)GalNAc(b1-3)Gal(a1-4)Gal(b1-4)Glc
Method in brief: as §1

[5] = molecular target: Fuc(a1-2)Gal(b1-3)GalNAc(b1-4)[Neu5Ac(a2-3)]Gal(b1-4)Glc
Method in brief: as §1

Fuc(a1-2)Gal(b1-3)GlcNAc = molecular target: Fuc(a1-2)Gal(b1-3)GlcNAc
Method in brief: as §1

[6] = molecular target: Fuc(a1-2)Gal(b1-3)GlcNAc(b1-2)Man(a1-3)[Fuc(a1-2)Gal(b1-3)GlcNAc(b1-2)Man(a1-6)]Man(b1-4)GlcNAc(b1-4)GlcNAc
Method in brief: as §1

[7] = molecular target: Fuc(a1-2)Gal(b1-3)GlcNAc(b1-2)Man(a1-3)[Fuc(a1-2)Gal(b1-3)GlcNAc(b1-2)Man(a1-6)]Man(b1-4)GlcNAc(b1-4)[Fuc(a1-6)]GlcNAc
Method in brief: as §1

[8] = molecular target: Fuc(a1-2)Gal(b1-3)GlcNAc(b1-3)Gal(b1-4)Glc
Method in brief: as §1

[9] = molecular target: Fuc(a1-2)Gal(b1-3)GlcNAc(b1-3)GalNAc
Method in brief: as §1

[10] = molecular target: Fuc(a1-2)Gal(b1-3)GlcNAc(b1-3)[Fuc(a1-2)Gal(b1-3)GlcNAc(b1-6)]GalNAc
Method in brief: as §1

[11] = molecular target: Fuc(a1-2)Gal(b1-3)GlcNAc(b1-3)[Gal(b1-4)GlcNAc(b1-6)]Gal(b1-4)Glc
Method in brief: as §1

[12] = molecular target: Fuc(a1-2)Gal(b1-3)GlcNAc(b1-3)[Neu5Ac(a2-6)Gal(b1-4)GlcNAc(b1-6)]Gal(b1-4)Glc
Method in brief: as §1

[13] = molecular target: Fuc(a1-2)Gal(b1-3)GlcNAc6S
Method in brief: as §1

[14] = molecular target: Fuc(a1-2)Gal(b1-3)[Fuc(a1-4)]GlcNAc
Method in brief: as §1

[15] = molecular target: Fuc(a1-2)Gal(b1-3)[Fuc(a1-4)]GlcNAc(b1-2)Man(a1-3)[Fuc(a1-2)Gal(b1-3)[Fuc(a1-4)]GlcNAc(b1-2)Man(a1-3)]Man(b1-4)GlcNAc(b1-4)GlcNAc
Method in brief: as §1

[16] = molecular target: Fuc(a1-2)Gal(b1-3)[Fuc(a1-4)]GlcNAc(b1-2)Man(a1-3)[Fuc(a1-2)Gal(b1-3)[Fuc(a1-4)]GlcNAc(b1-2)Man(a1-6)]Man(b1-4)GlcNAc(b1-4)[Fuc(a1-6)]GlcNAc(b1-4)[Fuc(a1-6)]GlcNAc
Method in brief: as §1

[17] = molecular target: Fuc(a1-2)Gal(b1-3)[Fuc(a1-4)]GlcNAc(b1-3)[Fuc(a1-3)[Gal(b1-4)]GlcNAc(b1-6)]Gal(b1-4)Glc
Method in brief: as §1

[18] = molecular target: Fuc(a1-2)Gal(b1-3)[Fuc(a1-4)]GlcNAc(b1-3)[Gal(b1-4)GlcNAc(b1-6)]Gal(b1-4)Glc
Method in brief: as §1

Fuc(a1-2)Gal(b1-4)Glc = molecular target: Fuc(a1-2)Gal(b1-4)Glc
Method in brief: as §1

Fuc(a1-2)Gal(b1-4)Glc6S = molecular target: Fuc(a1-2)Gal(b1-4)Glc6S
Method in brief: as §1

Fuc(a1-2)Gal(b1-4)GlcNAc = molecular target: Fuc(a1-2)Gal(b1-4)GlcNAc
Method in brief: as §1

[19] = molecular target: Fuc(a1-2)Gal(b1-4)GlcNAc(b1-2)Man
Method in brief: as §1

[20] = molecular target: Fuc(a1-2)Gal(b1-4)GlcNAc(b1-2)Man(a1-3)[Fuc(a1-2)Gal(b1-4)GlcNAc(b1-2)Man(a1-6)]Man(b1-4)GlcNAc(b1-4)GlcNAc
Method in brief: as §1

[21] = molecular target: Fuc(a1-2)Gal(b1-4)GlcNAc(b1-2)Man(a1-3)[Fuc(a1-2)Gal(b1-4)GlcNAc(b1-2)Man(a1-6)]Man(b1-4)GlcNAc(b1-4)[Fuc(a1-6)]GlcNAc
Method in brief: as §1

[22] = molecular target: Fuc(a1-2)Gal(b1-4)GlcNAc(b1-2)[Fuc(a1-2)Gal(b1-4)GlcNAc(b1-4)]Man(a1-3)[Fuc(a1-2)Gal(b1-4)GlcNAc(b1-2)Man(a1-6)]Man(b1-4)GlcNAc(b1-4)GlcNAc
Method in brief: as §1

[23] = molecular target: Fuc(a1-2)Gal(b1-4)GlcNAc(b1-3)Gal(b1-4)GlcNAc
Method in brief: as §1

[24] = molecular target: Fuc(a1-2)Gal(b1-4)GlcNAc(b1-3)Gal(b1-4)GlcNAc(b1-2)Man(a1-3)[Fuc(a1-2)Gal(b1-4)GlcNAc(b1-3)Gal(b1-4)GlcNAc(b1-2)Man(a1-6)]Man(b1-4)GlcNAc(b1-4)GlcNAc
Method in brief: as §1

B1: Gs78B-bfa-542-29-542 (Bacteroides fragilis) (protein)
chain: SEDINRNPLLPTKEDEKMDGVIYGAYLPNLEKSVIPIGTASESTEPVNRYQIGVNLAGDAWAGYMSPRDNKFNGSKNFTNYFMYENWVNYVYSFMVTDVYSPWMQIKRISQDEGTRNDEIYALAQIIKIAALHRTTDMFGPIPYSQVGKGSFKVAYDSQESVYRSFLKELEEAVQTLDDYSNKSKEVLPAFDIVYNGDVNKWMRFANSLMLRLAIRVRFADAGLAKEYAEKAVKHPAGLINSKELAAQMGKGAGLQMKNPLKVINEEYNDTRMGATIYSYLAGYNDARAAVYFVKNNGFKAVRCGIAKSGDAYNGFTRPNVHEDDPLYWMKASEVCFLKAEGALAGFDMGGSAGDFYNAGIRMSFSENGLDNSSAETYLKDSTRKPANYTDTSNGELSANAPSSITIRWENGATEEEKLERIITQKYLAIFPNGQEAWTEWRRTGYPRQIVVAENKTNSAVLIGNGYDLGGVRRLPYPRTEYEQNGENLHNAISQYLGGVDNAATKVWWDKKSK
glycan array binding signal (z-score) (Fuc(a1-2)Gal): -0.615 | glycan array binding signal (z-score) (Fuc(a1-2)Gal(b1-3)GalNAc): -0.638 | glycan array binding signal (z-score) [1]: 0.024 | glycan array binding signal (z-score) [2]: -0.825 | glycan array binding signal (z-score) [3]: -0.042 | glycan array binding signal (z-score) [4]: -0.777 | glycan array binding signal (z-score) [5]: -0.594 | glycan array binding signal (z-score) (Fuc(a1-2)Gal(b1-3)GlcNAc): -0.804 | glycan array binding signal (z-score) [6]: 1.64 | glycan array binding signal (z-score) [7]: 2.47 | glycan array binding signal (z-score) [8]: -0.826 | glycan array binding signal (z-score) [9]: -0.318 | glycan array binding signal (z-score) [10]: 0.287 | glycan array binding signal (z-score) [11]: 0.745 | glycan array binding signal (z-score) [12]: -0.143 | glycan array binding signal (z-score) [13]: -0.658 | glycan array binding signal (z-score) [14]: -0.801 | glycan array binding signal (z-score) [15]: 0.574 | glycan array binding signal (z-score) [16]: -0.521 | glycan array binding signal (z-score) [17]: 0.149 | glycan array binding signal (z-score) [18]: -0.741 | glycan array binding signal (z-score) (Fuc(a1-2)Gal(b1-4)Glc): -0.615 | glycan array binding signal (z-score) (Fuc(a1-2)Gal(b1-4)Glc6S): -0.068 | glycan array binding signal (z-score) (Fuc(a1-2)Gal(b1-4)GlcNAc): -0.806 | glycan array binding signal (z-score) [19]: -0.063 | glycan array binding signal (z-score) [20]: 0.583 | glycan array binding signal (z-score) [21]: -0.407 | glycan array binding signal (z-score) [22]: 0.289 | glycan array binding signal (z-score) [23]: -0.851 | glycan array binding signal (z-score) [24]: 0.637
